Measured values as given in paper PMC10947329.
Results are given in words; binding and its absence hold for the method and conditions named. In cells and extracts the contact can be indirect. A result given as binding can be weak or reduced; the word gives no strength.

B1: proacrosin (∼53 kDa) (protein, UniProt P08001 17-415)
chain: RDNATCDGPCGLRFRQKLESGMRVVGGMSAEPGAWPWMVSLQIFMYHNNRRYHTCGGILLNSHWVLTAAHCFKNKKKVTDWRLIFGANEVVWGSNKPVKPPLQERFVEEIIIHEKYVSGLEINDIALIKITPPVPCGPFIGPGCLPQFKAGPPRAPQTCWVTGWGYLKEKGPRTSPTLQEARVALIDLELCNSTRWYNGRIRSTNVCAGYPRGKIDTCQGDSGGPLMCRDRAENTFVVVGITSWGVGCARAKRPGVYTSTWPYLNWIASKIGSNALQMVQLGTPPRPSTPAPPVRPPSVQTPVRPPWYFQRPPGPSQQPGSRPRPPAPPPAPPPPPPPPPPPPPPPPPPPQQVSAKPPQALSFAKRLQQLIEALKGTAFSSGRSYYETETTDLQELPAS
B2: Acrosin binding protein, 60 kDa form (ACRBP) (protein, UniProt Q29016 26-539)
chain: QDANSASTPGSPLSPTEYERFFALLTPTWKAETTCRLRATHGCRNPTLVQLDQYENHGLVPDGAVCSDLPYASWFESFCQFTQYRCSNHVYYAKRVRCSQPVSILSPNSLKEVDTSSEVPITTMTSPVSSHITATGRQVFQPWPERLNNNVEELLQSSLSLGGQEQGQEHKQEHKQEQGQEHKQDEGQEQEEQEEEQEEEGKQEEGQGTEESLEAMSGLQADSEPKFQSEFVSSNPFSFTPRVREVESTPMMMENIQELIRSAQEMDEMGDVYEEENIWRAQSPGSLLQLPHVDALLVLCYSIVENTCVITPTAKAWQYLEDETLGFGKSVCDSLGRRHLAACSLCDFCSLKLEQCHSETNLQRQQCDNSHKTPFISPLLASQSMSIGTQIGTLKSGRFYGLDLYGGLRMDFWCARLATKGCEDNRVASWLQTEFLSFQDGDFPTKICDTEYVQYPNYCAFKSQQCMMRNRDRKVSRMRCLQNETYTVLTQAKSEDLVLRWSQEFSTLTLGQAG

Legend:
[1] = target: Cysteine‐rich secretory protein 2 (pig (endogenous in boar spermatozoa)); assay: co-IP; anti-CRISP2 cross-linked to protein A/G magnetic beads, lysates of non-capacitated (NC), capacitated (CAP) and ionophore-induced (II) boar sperm, overnight at 4°C, three washes; eluates by western blot with anti-acrosin, anti-ACRBP, anti-CRISP2
[2] = target: Cysteine‐rich secretory protein 2 (pig (endogenous in boar spermatozoa)); assay: proximity ligation; direct in situ PLA (oligonucleotide-conjugated primary antibodies, Duolink Probemaker) with anti-ACRBP and anti-CRISP2; NC, CAP and II boar sperm fixed in 4% PFA, permeabilised in cold acetone for 10 min

Binder | binding [1] | binding [2]
B1 | binds | –
B2 | binds | binds
